Experimental data reported in patent US11103501B2, “Dry powder formulation of azole derivative for inhalation” (priority 2011, dated 2021).
Several values for one entry are separate records, joined by “and”; a condition that tells them apart may be missing. Identical values can stand only once. At least one compound was matched to its structure with a doubt left.

What was measured:
[1] = PXRD based estimated amorphous content, after spray drying and after storage; format: physicochemical
[2] = In vitro dissolution test, USP 33 type 2 paddle apparatus, pH 1.2 with 0.3% sodium lauryl sulfate; format: physicochemical; conditions: pH 1.2, 0.3% sodium lauryl sulfate; comparison with bulk crystalline ITZ or other formulations

SMILES: CCC(C)n1ncn(-c2ccc(N3CCN(c4ccc(OCC5COC(Cn6cncn6)(c6ccc(Cl)cc6Cl)O5)cc4)CC3)cc2)c1=O (stereo not drawn) [Example 1A, itraconazole]
- DRX based estimated amorphous sample's content, T 2 months ([1]; 2 months storage at 8° C.): 100%
- DRX based estimated amorphous sample's content, T 2 months ([1]; 2 months storage at 8° C., listed as amorphous itraconazole): 100%
- DRX based estimated amorphous sample's content, T 2 months ([1]; 2 months storage at 25° C.): 100%
- DRX based estimated amorphous sample's content, T 2 months ([1]; 2 months storage at 25° C., listed as amorphous itraconazole): 100%
- DRX based estimated amorphous sample's content, T 2 months ([1]; 2 months storage at 40° C.): 63%
- DRX based estimated amorphous sample's content, T 2 months ([1]; 2 months storage at 40° C., listed as amorphous itraconazole): ~63%
- DRX based estimated amorphous sample's content, T 0 months ([1]; directly after spray drying): ~100% and 100%
- Dissolution profile compared in words [2]: no difference in the drug release curves

SMILES: CCC(C)n1ncn(-c2ccc(N3CCN(c4ccc(OCC5COC(Cn6cncn6)(c6ccc(Cl)cc6Cl)O5)cc4)CC3)cc2)c1=O (stereo not drawn) [Example 3F, itraconazole]
- PXRD based estimated Amorphous content (%) ([1]; spray dried powders of Example 3): 100%
